Measurements: patent US20140051665A1, “PROSTATE CANCER THERAPY WITH HSP90 INHIBITORY COMPOUNDS” (SYNTA PHARMACEUTICALS CORP., priority 2011, published 2014)
At least one compound was matched to its structure with a doubt left.

Legend:
Assay type in all cases: cell-based
[1] = test system: full length AR; test: Expression of transfected full length AR in HeLa, immunoblot; settings: 24 h, GA or 250 nM ganetespib, 10 nM R1881
[2] = test system: full-length AR activity; test: GRE-luciferase reporter assay in HeLa, full-length AR
[3] = test system: V7 truncated AR isoform; test: Expression of transfected V7 truncated AR in HeLa, immunoblot; settings: 24 h, 1 mM GA or 250 nM ganetespib

COC1=C2C[C@@H](C)C[C@H](OC)[C@H](O)[C@@H](C)/C=C(\C)[C@H](OC(N)=O)[C@@H](OC)/C=C\C=C(/C)C(=O)NC(=CC1=O)C2=O [geldanamycin, reference compound]
androgen-increased full-length AR expression [1]: completely abrogated
full-length AR activity, luciferase assay [2]: strongly inhibited
expression of the variant (V7) receptor [3]: neither inhibitor significantly altered expression
